Laboratory results: patent US9241488B2, “Azole derivative, method for producing azole derivative, and intermediate compound” (KUREHA CORPORATION, priority 2011, dated 2016)
Some entries share one result that the patent states for a list of compounds.

What was measured:
[1] = test system: wheat; assay: Growth inhibition test for wheat caused by seed treatment (pot test); details: 2 mg compound per 1 g wheat seeds, 36 days after seeding, larger index = smaller damage
[2] = test system: wheat; assay: Harmful effect of necrosis to wheat caused by seed treatment (pot test); type: in vivo; details: 2 mg compound per 1 g wheat seeds, 31 days after seeding, smaller index = smaller harmful effect
Protocol: Thirty one days after the seeding, a degree of necrosis (necrosis area ratio) in wheat was evaluated. By using criteria shown in Table 7, necrosis indexes were calculated on the basis of the necrosis area ratio.

[3] = test system: Puccinia recondita-causing microorganisms; assay: Controlling effect on wheat brown rust, wettable formulation at 100 mg/L (spray, pot test); type: in vivo; details: 100 mg/L sprayed at 1,000 L/ha, wheat NORIN No. 61

| Structure (SMILES) | damage (growth inhibition) index [1] | necrosis index [2] | protective value [3] [%] |
| --- | --- | --- | --- |
| COC[C@]1(CCl)CC[C@@H](Cc2ccc(Cl)cc2)[C@]1(O)Cn1cncn1 (racemic) [Compound I-16a, (1RS,2RS,5SR)-5-(4-chlorobenzyl)-2-chloromethyl-2-methoxymethyl-1H-[1,2,4]triazole-1-ylmethylcyclopentanol] | 4 (Less than 20% but 1% or more) |  |  |
| CC1(C)OCC2(CCC(Cc3ccc(Cl)cc3)C2(O)Cn2cncn2)CO1 (stereo not drawn) [Compound V′-a-cis, 2-(4-chlorobenzyl)-8,8-dimethyl-1-[1,2,4]triazole-1-ylmethyl-7,9-dioxaspiro[4,5]decane-1-ol] | 4 (Less than 20% but 1% or more) | 0 (Less than 1%) | ≥ 90 |
| OC1(Cn2cncn2)C(Cc2ccc(Cl)cc2)CCC12COCOC2 (stereo not drawn) [Compound V′-d, 2-(4-chlorobenzyl)-1-(1H-1,2,4-triazole-1-ylmethyl)-7,9-dioxaspiro[4,5]decane-1-ol] | 4 (Less than 20% but 1% or more) | 0 (Less than 1%) |  |
| CC1OCC2(CCC(Cc3ccc(Cl)cc3)C2(O)Cn2cncn2)CO1 (stereo not drawn) [Compound V′-e, 2-(4-chlorobenzyl)-8-methyl-1-(1H-1,2,4-triazole-1-ylmethyl)-7,9-dioxaspiro[4,5]decane-1-ol] | 4 (Less than 20% but 1% or more) | 0 (Less than 1%) | ≥ 90 |
